Laboratory results from paper PMC12321584.
No constants are given. Whether binding was seen depends on the method and setting. In cells and extracts the contact can be indirect. Some binding calls cover weakened binding; strength is not graded here.

By UniProt entry, the sequences of proteins in these tests, tags left out.
UniProt Q62420: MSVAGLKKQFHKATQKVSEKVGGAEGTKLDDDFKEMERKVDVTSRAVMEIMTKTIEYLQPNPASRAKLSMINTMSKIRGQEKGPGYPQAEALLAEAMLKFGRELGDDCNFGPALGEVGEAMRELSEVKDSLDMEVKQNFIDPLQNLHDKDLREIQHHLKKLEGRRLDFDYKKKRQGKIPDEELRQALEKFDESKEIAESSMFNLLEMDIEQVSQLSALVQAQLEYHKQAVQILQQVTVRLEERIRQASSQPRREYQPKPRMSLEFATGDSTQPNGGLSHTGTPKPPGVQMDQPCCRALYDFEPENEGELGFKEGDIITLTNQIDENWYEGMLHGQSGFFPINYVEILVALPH
UniProt Q15811: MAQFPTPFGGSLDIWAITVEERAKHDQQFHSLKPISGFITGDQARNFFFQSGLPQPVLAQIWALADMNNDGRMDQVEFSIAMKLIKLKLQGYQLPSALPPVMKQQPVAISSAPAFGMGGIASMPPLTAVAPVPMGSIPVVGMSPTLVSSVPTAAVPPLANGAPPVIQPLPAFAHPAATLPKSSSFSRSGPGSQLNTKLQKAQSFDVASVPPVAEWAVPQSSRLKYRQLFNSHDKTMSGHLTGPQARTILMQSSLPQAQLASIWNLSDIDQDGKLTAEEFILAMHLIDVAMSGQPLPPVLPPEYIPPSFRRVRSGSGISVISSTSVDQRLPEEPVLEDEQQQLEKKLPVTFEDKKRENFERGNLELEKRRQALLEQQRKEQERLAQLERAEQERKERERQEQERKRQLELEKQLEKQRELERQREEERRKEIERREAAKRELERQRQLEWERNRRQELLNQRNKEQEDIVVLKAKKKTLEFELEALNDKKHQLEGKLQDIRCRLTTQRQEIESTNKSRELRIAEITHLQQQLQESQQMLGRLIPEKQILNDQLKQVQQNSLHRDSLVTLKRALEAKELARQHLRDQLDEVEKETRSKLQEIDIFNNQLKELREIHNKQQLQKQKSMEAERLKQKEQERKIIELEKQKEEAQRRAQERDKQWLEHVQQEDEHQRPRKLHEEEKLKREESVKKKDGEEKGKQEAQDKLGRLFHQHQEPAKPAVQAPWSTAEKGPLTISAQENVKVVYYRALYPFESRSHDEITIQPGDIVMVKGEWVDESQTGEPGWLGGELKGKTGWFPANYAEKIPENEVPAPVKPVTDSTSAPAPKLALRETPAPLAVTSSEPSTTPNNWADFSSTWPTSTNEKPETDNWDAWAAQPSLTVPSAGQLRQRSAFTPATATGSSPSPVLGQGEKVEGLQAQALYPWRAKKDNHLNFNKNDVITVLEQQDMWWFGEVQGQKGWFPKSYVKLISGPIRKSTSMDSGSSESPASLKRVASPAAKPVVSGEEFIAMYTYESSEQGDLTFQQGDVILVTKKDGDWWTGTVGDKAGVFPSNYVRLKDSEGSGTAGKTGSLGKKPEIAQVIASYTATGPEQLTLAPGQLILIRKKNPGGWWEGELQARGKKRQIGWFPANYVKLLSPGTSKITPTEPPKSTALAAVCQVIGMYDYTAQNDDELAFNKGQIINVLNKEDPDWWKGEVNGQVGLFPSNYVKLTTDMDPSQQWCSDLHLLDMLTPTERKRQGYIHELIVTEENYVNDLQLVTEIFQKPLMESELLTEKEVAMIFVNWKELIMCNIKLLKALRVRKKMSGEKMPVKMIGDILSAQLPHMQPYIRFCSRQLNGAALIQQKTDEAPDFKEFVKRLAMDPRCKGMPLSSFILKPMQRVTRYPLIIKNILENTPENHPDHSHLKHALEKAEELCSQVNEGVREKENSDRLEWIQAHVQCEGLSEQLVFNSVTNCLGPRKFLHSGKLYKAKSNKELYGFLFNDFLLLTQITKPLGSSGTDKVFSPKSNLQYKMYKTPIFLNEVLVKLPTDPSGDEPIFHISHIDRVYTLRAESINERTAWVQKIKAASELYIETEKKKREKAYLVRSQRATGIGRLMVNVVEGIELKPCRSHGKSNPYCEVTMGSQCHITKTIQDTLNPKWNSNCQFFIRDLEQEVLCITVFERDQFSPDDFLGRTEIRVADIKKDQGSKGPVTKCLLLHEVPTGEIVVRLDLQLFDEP

Target: endophilin A1 (mouse (endogenous in hippocampal neurons)) (UniProt Q62420)
Experiment: co-IP; anti-endophilin antibody on Dynabeads; lysates of Itsn1 KO mouse hippocampal cultures infected with rescue lentivirus (DIV 7, lysed DIV 14); lysis buffer 20 mM HEPES pH 7.4, 50 mM KCl, 2 mM MgCl2, 1% Triton X-100; blot with anti-Itsn1 and anti-endophilin 1

- binding: binds
Substance: intersectin-1, full-length rescue construct ITSN1 WT (from UniProt Q15811 1-1721)
